In PubChem BioAssay AID540276 (National Center for Advancing Translational Sciences (NCATS), 2011):
The campaign covered roughly 300,000 compounds. About 5,400 (1.8%) were called active. The inconclusive results got no clear call from the source; some entries with a clear call stand among them for comparison. The call rests on the fitted dose curve; tested in HEK293 cells. Where the call is inconclusive, the potency comes from a doubtful curve fit.

Test: qHTS for inhibitors of binding or entry into cells for Marburg Virus
Settings: Marburg virus pseudotyped entry inhibition, cell reporter; activity change, negative = inhibition: at 37.8 µM (top of the series) unless noted
On the % scale 0 is the no-effect control and ±100 the full control effect; potency means the concentration at half of the fitted maximal effect.

Row | SMILES | Potency | activity change, negative = inhibition
1 | CC1CCCC(NC(=O)CNC(=S)N(Cc2ccccc2)Cc2cccs2)C1C (stereo unspecified) | inconclusive: 35.5 µM [inhibitor, single point] | –
2 | O=C(NCc1cccnc1)c1cc(-c2ccco2)on1 | – | inactive: 21.1%
3 | O=C(CN(Cc1ccco1)C(=O)CNS(=O)(=O)c1ccc(Cl)cc1)NC1CCCCC1 | inconclusive: 11.2 µM [inhibitor, partial curve, poor fit] | –
4 | Cc1ccc(Cn2cccc(-c3nc4ccccc4s3)c2=O)cc1 | inconclusive: 29.1 µM [inhibitor, single point] | –
5 | O[C@@H]1C[C@H](c2ccc(Cl)cc2)N(Cc2cccs2)C[C@@H]1n1cc(-c2ccc(F)cc2)nn1 | inconclusive: 4.45 µM [inhibitor, full curve, poor fit] | –
6 | Cc1ccc(CNc2ccc(-c3nc(-c4ccncc4)no3)cc2[N+](=O)[O-])cc1 | – | inactive: 3.29% [at 46.1 µM]
7 | N#C/C(C(=O)N1CCCCC1)=C1\Nc2ccccc2S1 | inconclusive: 1.78 µM [activator, full curve, poor fit] | –
8 | Cc1c(NC(=O)CSc2nnnn2Cc2ccccc2)c(=O)n(-c2ccccc2)n1C | – | inactive: 9%
9 | COc1ccc(OC)c(CCNC(=O)CN2C(=O)CCSc3ccccc32)c1 | – | inactive: 1.43% [at 46.1 µM]
10 | O=C1c2ccccc2CCC1C(O)c1ccccn1 (stereo unspecified) | – | inactive: 12.2%
11 | S=C(NC12CC3CC(CC(C3)C1)C2)N1CCCC1 | – | inactive: 6.99%
12 | CSc1nc2nccc(/C=C\c3ccccc3)n2n1 | – | inactive: -29.3%
13 | O=C(CCCCl)NC(=S)Nc1cc(C(F)(F)F)ccc1N1CCOCC1 | inconclusive: 25.9 µM [inhibitor, single point] | –
14 | O=C(CSc1nnc(-c2cccnc2)n1Cc1ccco1)N1CCc2ccccc21 | – | inactive: 1.11%
15 | CC(C)(C)C1CCc2c(sc(NC(=O)Cn3nnc(-c4ccccc4Cl)n3)c2C#N)C1 (stereo unspecified) | – | inactive: 6.97% [at 46.1 µM]
16 | Cc1cccc(N2CCN(C(=O)CCn3c(=S)[nH]c4cc5c(cc4c3=O)OCO5)CC2C)c1 (stereo unspecified) | inconclusive: 29.1 µM [inhibitor, single point] | –
17 | CCc1nc(NCCCn2ccnc2)c2oc3ccccc3c2n1 | – | inactive: 5.92%
18 | OCCNc1nc(Nc2ccccc2)nc2ccccc12 | inconclusive: 11.2 µM [inhibitor, single point] | –
19 | CCOC(=O)c1c(-c2ccc(C)o2)csc1NC(=O)CN1CCCCC1 | inconclusive: 22.4 µM [inhibitor, single point] | –
20 | CCCC(c1nnnn1Cc1cccs1)N1CCN(c2nc3ccccc3s2)CC1 (stereo unspecified) | inconclusive: 35.5 µM [inhibitor, single point] | –
21 | CN(c1ccc(F)cc1)S(=O)(=O)c1ccc(Cl)c(C(=O)Nc2ccncc2)c1 | – | inactive: -19%

Record cards, from the list above. Values in the order: Potency	activity change, negative = inhibition
CSc1nc2nccc(/C=C\c3ccccc3)n2n1 is entered as –	inactive: -29.3%
CCCC(c1nnnn1Cc1cccs1)N1CCN(c2nc3ccccc3s2)CC1 (stereo unspecified) is entered as inconclusive: 35.5 µM [inhibitor, single point]	–
